Measured values: article PMC7719784
No constants are given. Whether binding was seen depends on the method and setting. Binding seen in cells or lysates may run through a third protein. Binding can be weak; no strength is given. Where a sequence is shown, tags or fusion partners need not be part of it.

Chains of the proteins cited; added tags and fusions are not shown. Lines headed by an entry give the natural chain unless they say otherwise; changes in a name come on top.
UniProt Q7ZVG6: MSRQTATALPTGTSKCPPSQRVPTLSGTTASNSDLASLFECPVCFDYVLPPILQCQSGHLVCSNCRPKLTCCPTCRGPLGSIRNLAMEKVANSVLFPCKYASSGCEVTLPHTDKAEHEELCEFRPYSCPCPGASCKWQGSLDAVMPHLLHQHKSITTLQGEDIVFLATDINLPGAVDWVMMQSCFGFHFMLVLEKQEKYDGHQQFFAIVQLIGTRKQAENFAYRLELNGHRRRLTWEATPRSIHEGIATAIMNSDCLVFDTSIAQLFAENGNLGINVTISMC

Biological target: T1, Cdhr1a-FLAG (zebrafish) (UniProt Q6B3P0)
T1 sequence: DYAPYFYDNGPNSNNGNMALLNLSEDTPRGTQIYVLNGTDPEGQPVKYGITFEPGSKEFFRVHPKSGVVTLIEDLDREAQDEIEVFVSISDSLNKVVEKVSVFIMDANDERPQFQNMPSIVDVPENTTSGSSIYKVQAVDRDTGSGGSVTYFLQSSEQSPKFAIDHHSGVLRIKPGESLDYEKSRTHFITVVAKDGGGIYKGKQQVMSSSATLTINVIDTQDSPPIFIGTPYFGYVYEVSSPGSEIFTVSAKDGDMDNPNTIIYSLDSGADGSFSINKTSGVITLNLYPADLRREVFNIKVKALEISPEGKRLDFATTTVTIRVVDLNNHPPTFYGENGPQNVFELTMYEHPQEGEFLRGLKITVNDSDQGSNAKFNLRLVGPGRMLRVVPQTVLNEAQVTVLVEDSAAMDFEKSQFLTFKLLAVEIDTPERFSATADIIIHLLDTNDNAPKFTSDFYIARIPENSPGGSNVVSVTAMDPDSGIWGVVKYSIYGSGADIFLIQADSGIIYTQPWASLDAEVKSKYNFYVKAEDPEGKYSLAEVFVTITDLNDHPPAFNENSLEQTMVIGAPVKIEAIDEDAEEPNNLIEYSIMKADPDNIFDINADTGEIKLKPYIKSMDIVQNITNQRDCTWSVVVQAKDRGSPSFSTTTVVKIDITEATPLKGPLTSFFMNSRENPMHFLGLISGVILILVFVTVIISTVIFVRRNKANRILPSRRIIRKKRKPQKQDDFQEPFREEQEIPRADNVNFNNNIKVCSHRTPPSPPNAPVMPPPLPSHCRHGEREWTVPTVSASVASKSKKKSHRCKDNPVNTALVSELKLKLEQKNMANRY
Experiment: co-IP; HEK 293 cells co-transfected with Cdhr1a-FLAG and Siah1-myc or Siah1ΔRING-myc; treated with MG132 for 6 h prior to lysis; precipitated with FLAG antibodies; blot probed for FLAG and MYC

binding: binds
Substance: Siah1ΔRING-myc (from UniProt Q7ZVG6) (enzyme)
